Test results reported in publication PMC11418137.

Protein sequences, listed by entry. Tags and fused reporters are not part of them. Lines headed by an entry give the natural chain unless they say otherwise; changes in a name come on top. Residues count along the entry.
UniProt P31358: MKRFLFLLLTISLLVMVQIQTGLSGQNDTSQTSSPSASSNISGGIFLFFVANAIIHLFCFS
UniProt P09693, residues 23-182: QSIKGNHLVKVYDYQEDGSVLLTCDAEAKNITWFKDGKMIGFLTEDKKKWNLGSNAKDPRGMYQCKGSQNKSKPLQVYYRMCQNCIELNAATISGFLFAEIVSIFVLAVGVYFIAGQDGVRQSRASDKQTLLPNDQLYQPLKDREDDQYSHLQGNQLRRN
UniProt P06127, residues 25-495: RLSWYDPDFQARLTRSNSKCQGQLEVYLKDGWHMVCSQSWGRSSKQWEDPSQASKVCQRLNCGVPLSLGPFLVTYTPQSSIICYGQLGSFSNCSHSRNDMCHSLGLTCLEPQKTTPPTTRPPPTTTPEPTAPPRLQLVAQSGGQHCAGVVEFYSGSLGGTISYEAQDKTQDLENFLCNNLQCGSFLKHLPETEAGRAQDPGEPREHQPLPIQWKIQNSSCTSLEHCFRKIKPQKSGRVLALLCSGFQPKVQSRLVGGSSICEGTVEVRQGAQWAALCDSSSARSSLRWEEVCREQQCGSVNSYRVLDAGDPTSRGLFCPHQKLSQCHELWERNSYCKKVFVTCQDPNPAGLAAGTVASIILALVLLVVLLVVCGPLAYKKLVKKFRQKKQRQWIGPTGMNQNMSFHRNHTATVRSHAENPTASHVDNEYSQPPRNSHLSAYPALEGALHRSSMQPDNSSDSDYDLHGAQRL

Biological target: T1, membrane-bound CD52 of CD4+ T cells (human (endogenous in CD4+ T cells of patients)) (UniProt P31358)
T1 sequence: GQNDTSQTSSPS
Experiment: proximity labelling; AD CD4+ T cells (n = 4) stained with HRP-conjugated anti-human CD52 antibody or IgG1 isotype; 95 μM tyramide-SS-biotin, 0.01% hydrogen peroxide, on ice 2 min; biotinylated proteins on streptavidin Dynabeads, LC-MS quantitative proteomics; labels proteins within a 20–100 nm radius of CD52

Row | binding | Substance
1 | no binding | CD3γ of CD4+ T cells (from UniProt P09693 23-182) (receptor)
2 | no binding | CD5 of CD4+ T cells (from UniProt P06127 25-495)

No constants are given. Whether binding was seen depends on the method and setting. In cells and extracts the contact can be indirect. These calls come from enrichment with a bait or labelling near it, and not all partners need be listed. No binding means not detected with the bait.
